In paper PMC5533464 one finds binding data, which are given here for 1 molecule.

The target of the assay is T1, AtCNGC4, BiFC fusion (Arabidopsis) (UniProt Q94AS9).
T1 sequence: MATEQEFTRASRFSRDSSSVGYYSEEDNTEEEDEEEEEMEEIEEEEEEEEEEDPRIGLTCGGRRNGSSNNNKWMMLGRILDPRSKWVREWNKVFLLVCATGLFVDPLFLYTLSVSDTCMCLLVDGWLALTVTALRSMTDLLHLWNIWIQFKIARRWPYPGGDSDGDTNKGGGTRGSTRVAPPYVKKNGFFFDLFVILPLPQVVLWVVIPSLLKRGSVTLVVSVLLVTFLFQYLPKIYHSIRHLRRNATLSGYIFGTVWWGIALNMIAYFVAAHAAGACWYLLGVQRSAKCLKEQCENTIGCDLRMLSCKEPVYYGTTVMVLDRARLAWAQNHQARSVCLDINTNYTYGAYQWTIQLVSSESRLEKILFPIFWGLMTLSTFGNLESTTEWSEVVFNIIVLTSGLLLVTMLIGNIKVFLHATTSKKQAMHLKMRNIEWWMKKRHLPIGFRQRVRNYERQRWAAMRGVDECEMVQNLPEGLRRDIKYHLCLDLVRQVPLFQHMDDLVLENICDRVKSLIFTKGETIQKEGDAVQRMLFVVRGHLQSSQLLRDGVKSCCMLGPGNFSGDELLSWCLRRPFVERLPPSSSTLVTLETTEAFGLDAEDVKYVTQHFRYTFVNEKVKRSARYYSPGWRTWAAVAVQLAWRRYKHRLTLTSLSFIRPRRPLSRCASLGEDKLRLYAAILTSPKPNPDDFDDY
Kind of assay: split reporter; BiFC with eYFP halves (pSPYNE173, pSPYCE(M)); Agrobacterium EHA105 co-infiltrated into N. benthamiana leaves with the p19 strain and the PM marker PIP2;1-mCherry; confocal microscopy 48-72 h after infiltration.

These are yes or no findings as the source states them, for the method shown. In cells and extracts the contact can be indirect. Some results given as binding are weak or reduced against the parent protein; the word gives no strength. Tags and fused reporters may be left off the sequences shown.

B1: AtCNGC2, BiFC fusion (protein, UniProt O65718 1-726)
chain: MPSHPNFIFRWIGLFSDKFRRQTTGIDENSNLQINGGDSSSSGSDETPVLSSVECYACTQVGVPAFHSTSCDQAHAPEWRASAGSSLVPIQEGSVPNPARTRFRRLKGPFGEVLDPRSKRVQRWNRALLLARGMALAVDPLFFYALSIGRTTGPACLYMDGAFAAVVTVLRTCLDAVHLWHVWLQFRLAYVSRESLVVGCGKLVWDPRAIASHYARSLTGFWFDVIVILPVPQAVFWLVVPKLIREEKVKLIMTILLLIFLFQFLPKIYHCICLMRRMQKVTGYIFGTIWWGFALNLIAYFIASHVAGGCWYVLAIQRVASCIRQQCMRTGNCNLSLACKEEVCYQFVSPTSTVGYPCLSGNLTSVVNKPMCLDSNGPFRYGIYRWALPVISSNSLAVKILYPIFWGLMTLSTFANDLEPTSNWLEVIFSIVMVLSGLLLFTLLIGNIQVFLHAVMAKKRKMQIRCRDMEWWMKRRQLPSRLRQRVRRFERQRWNALGGEDELELIHDLPPGLRRDIKRYLCFDLINKVPLFRGMDDLILDNICDRAKPRVFSKDEKIIREGDPVQRMIFIMRGRVKRIQSLSKGVLATSTLEPGGYLGDELLSWCLRRPFLDRLPPSSATFVCLENIEAFSLGSEDLRYITDHFRYKFANERLKRTARYYSSNWRTWAAVNIQMAWRRRRKRTRGENIGGSMSPVSENSIEGNSERRLLQYAAMFMSIRPHDHLE
Take B1: the binding entry was “binds”.
